According to the supplement of paper PMC4604168 (melanoma cell lines):
The list shows a part of the results. Repeats are few or missing, and single values can be far off.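 The apoptosis fraction was the count of cleaved-PARP antibody-stained nuclei relative to all DNA-stained nuclei, imaged in 1,536-well plates. Screening doses were set so most cells survived, and baseline and induced cleaved-PARP levels vary greatly across cell lines.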

tested on: RPMI7951; assay: cleaved PARP positive nuclei fraction relative to DMSO control; melanoma cells; higher = more apoptosis; conditions: library dose: low library concentration; 72 h

Row | Compound | cleaved PARP positive nuclei fraction
1 | Cc1cn(-c2cc(NC(=O)c3ccc(C)c(Nc4nccc(-c5cccnc5)n4)c3)cc(C(F)(F)F)c2)cn1 [nilotinib] + CN(c1ncccc1CNc1nc(Nc2ccc3c(c2)CC(=O)N3)ncc1C(F)(F)F)S(C)(=O)=O [PF562271] (first compound 0.2 µM, partner dose 0.08 µM) | 89.3%
2 | CC[C@]1(O)C[C@H]2CN(CCc3c([nH]c4ccccc34)[C@@](C(=O)OC)(c3cc4c(cc3OC)N(C=O)[C@H]3[C@@](O)(C(=O)OC)[C@H](OC(C)=O)[C@]5(CC)C=CCN6CC[C@]43[C@@H]65)C2)C1 [vincristine] + COCC[n+]1c2c(n(Cc3cnccn3)c1C)C(=O)c1ccccc1C2=O [YM155] (first compound 0.0001 µM, partner dose 0.0004 µM) | 199%
3 | Cc1cn(-c2cc(NC(=O)c3ccc(C)c(Nc4nccc(-c5cccnc5)n4)c3)cc(C(F)(F)F)c2)cn1 [nilotinib] + O=C(O)[C@@H]1[O][Sb](=[O])([O][Sb]2(=[O])[O][C@H]([C@H](O)CO)[C@H](O)[C@H](C(=O)O)[O]2)[O][C@H]([C@H](O)CO)[C@@H]1O [stibogluconate] (first compound 0.2 µM, partner dose 2 µM) | 58.2%
4 | COc1cc([C@@H]2c3cc4c(cc3[C@@H](O[C@@H]3O[C@@H]5CO[C@@H](C)O[C@H]5[C@H](O)[C@H]3O)[C@H]3COC(=O)[C@H]23)OCO4)cc(OC)c1O [etoposide] + CCCCCCCCCCCCCCCCCCOP(=O)([O-])OC1CC[N+](C)(C)CC1 [Perifosine] (first compound 0.02 µM, partner dose 0.4 µM) | 94.6%
